Assay results: article PMC7468482
No constants are given. Whether binding was seen depends on the method and setting. Blank lines part the entries; values can stand above or below the binder they belong to.

Target: MYC3 transcription factor (Arabidopsis thaliana), Q9FIP9
Assay: two-hybrid; GAL4 system, S. cerevisiae PJ69-4A co-transformed with bait and prey (pGAL424gate, pGBT9gate); 10- or 100-fold dilutions dropped on SD-Leu-Trp (control) and SD-Leu-Trp-His (selective); cultures grown at 30°C
Settings: remark: other sources report otherwise

binding: no binding
B1: PEAPOD 1 (PPD1), wild type, Q7XA73 1-313 (protein)
chain: MDVGVSPAKSILAKPLKLLTEEDISQLTREDCRKFLKDKGMRRPSWNKSQAIQQVLSLKALYEPGDDSGAGIFRKILVSQPVNPPRVTTTLIEPSNELEACGRVSYPEDNGACHRMDSPRSAEFSGGSGHFVSEKDGHKTTISPRSPAETSELVGQMTIFYSGKVNVYDGIPPEKARSIMHFAANPIDLPENGIFASSRMISKLISKEKMMELPQKGLEKANSSRDSGMEGQANRKVSLQRYREKRKDRKFSKAKKCPGVASSSLEMFLNCQPRMKAAYSQNLGCTGSPLHSQSPESQTKSPNLSVDLNSEGI

binding: no binding
B2: PEAPOD 2 (PPD2), wild type, Q8GY55 1-315 (protein)
chain: MDVGVTTAKSILEKPLKLLTEEDISQLTREDCRKFLKEKGMRRPSWNKSQAIQQVLSLKALYEPGDDSGAGILRKILVSQPPNPPRVTTTLIEPRNELEACGRIPLQEDDGACHRRDSPRSAEFSGSSGQFVADKDSHKTVSVSPRSPAETNAVVGQMTIFYSGKVNVYDGVPPEKARSIMHFAANPIDLPENGIFASSRMISKPMSKEKMVELPQYGLEKAPASRDSDVEGQANRKVSLQRYLEKRKDRRFSKTKKAPGVASSSLEMFLNRQPRMNAAYSQNLSGTGHCESPENQTKSPNISVDLNSDLNSEDN
